# From PubChem BioAssay AID2685 (National Center for Advancing Translational Sciences (NCATS), 2010)
# The other results are listed elsewhere or left out. These are further read-outs of the screen, such as a control signal, another cell line or another target. No call is given for them. The list favours compounds with an active or inconclusive main result. Words in brackets tell the shape of the fitted curve; partial curves, single points and poor fits give uncertain potencies. Where a SMILES comes first, the peptide text is derived from it. The star is where a group is joined. Boc = CC(C)(C)OC(=O)*
# Experiment: qHTS Assay for Lipid Storage Modulators in Drosophila S3 Cells;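 for cell number change: cells counted by Cell Tracker Red CMTPX staining in the red channel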
# Details: BODIPY lipid droplet fluorescence, 18-24 h; for cell number change: measured here: cell count max response, cells fed with added oleic acid
# How it was run: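 Drosophila S3 cells got compounds at several concentrations plus oleic acid (400 uM solution). Laser-scanning cytometry with 488 nm excitation read lipid droplets at 500-530 nm and cells at 575-640 nm. Percent activity was relative to 20 uM Triacsin C.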
# [1] = measured here: cell number channel AC50, cells fed with added oleic acid
# [2] = measured here: lipid fluorescence (Fed channel) AC50, cells fed with added oleic acid
Structure (SMILES),cell number change [%],AC50 [1],AC50 [2]
COc1ccccc1CNC(=O)c1ccccc1SCC(=O)NCc1ccco1,-95.2,"29.1 µM [falling, single point]",
CCc1ccc(OCC(=O)Nc2ccc(S(=O)(=O)Nc3cc(C)on3)cc2)c(Br)c1,33,"6.51 µM [rising, partial curve, poor fit]","5.17 µM [rising, partial curve]"
COc1cc(OC)cc(C(=O)N2CCC(n3c(C)nc4cc(F)ccc43)CC2)c1,-7.79,,"4.61 µM [rising, single point]"
COc1ccc(-n2nc(C(=O)NCC(=O)Nc3cc(OC)ccc3OC)c3ccccc3c2=O)cc1,-22.5,,
Cc1cc2c(c(=O)n1Cc1ccc3c(c1)OCO3)C(c1cccnc1)C(C#N)=C(N)O2 (configuration not stated),-1.08,,"0.146 µM [rising, full curve, poor fit]"
CC1CCN(C(=O)CCCOc2cc(=O)n(C)c3ccccc23)CC1,,"3.26 µM [rising, partial curve]","2.59 µM [rising, partial curve]"
CC1(C)c2ccccc2N2CCC(=O)NC21/C=C/c1ccco1 (configuration not stated),,"0.58 µM [rising, single point]",
Cc1ccc(SCCNC(=O)/C=C/c2ccc(Cl)cc2)cc1,22.5,,"32.6 µM [rising, single point]"
Cc1oc(-c2ccccc2F)nc1CS(=O)CC(=O)NCc1ccc2c(c1)OCO2 (configuration not stated),14.5,,
O=C(NCCO)Nc1ccc2nsnc2c1,116,"29.1 µM [rising, partial curve, poor fit]",
CCN1CCN(c2nc3c(c(=O)n(C)c(=O)n3C)n2Cc2cccc3ccccc23)CC1,,,"1.3 µM [rising, partial curve]"
O=C(CSc1cccc[n+]1[O-])Nc1cc([N+](=O)[O-])ccc1Cl,,"5.8 µM [falling, single point]",
Cc1ccc(NC(=S)N(CCN(C)C)Cc2cc3cc(C)cc(C)c3[nH]c2=O)cc1,5.64,,"7.31 µM [rising, partial curve]"
Cc1ccccc1NC(=O)CN1C(=O)NC2(CCCCCCC2)C1=O,23.7,,
Cc1cc(-c2ccc(C)c(S(=O)(=O)NCCCN(Cc3ccccc3)C(C)C)c2)on1,11,,"29.1 µM [rising, single point]"
CCC(C)C(NC(=O)OC(C)(C)C)C(=O)NC(Cc1ccccc1)C(=O)OC (stereo not drawn) (Boc-Ile-Phe-OMe; configuration not given here),3.55,,"16.4 µM [rising, partial curve, poor fit]"
CCN(c1ccccc1)S(=O)(=O)c1ccc(Cl)c(NC(=O)COC(=O)c2ccc(O)cc2)c1,-31.5,"20.6 µM [falling, single point]","16.4 µM [falling, single point]"
COc1ccc(CC(=O)Nc2ccc(S(=O)(=O)Nc3nc(C)cc(C)n3)cc2)cc1,,,"6.51 µM [falling, partial curve, poor fit]"
COc1ccc(NC(=S)N2CCC(NC(=O)c3ccc(OC)cc3)CC2)cc1,18.9,,
O=C(NCC(c1ccco1)N1CCCC1)c1cc2ccccc2s1 (configuration not stated),2.02,,"0.0651 µM [rising, full curve, poor fit]"

Structure (SMILES),cell number change [%],AC50 [1],AC50 [2]
CN(CCC#N)C(=O)COC(=O)c1ccc2c(=O)n3c(nc2c1)CCC3,-46.7,"16.4 µM [falling, single point]",
Cc1ccc(NC(=O)CSc2nnc(-c3ccncc3)n2N)cc1C,3.97,,
Cc1ccc(C(=O)Nc2ccccc2C(=O)NCc2cccnc2)cc1,13,,"29.1 µM [falling, single point]"
Cc1ccccc1NC(=O)c1cc2c(=O)n3cccc(C)c3nc2s1,23.9,,"4.11 µM [falling, single point]"
N#Cc1ccc(NC(=S)NCCN2CCOCC2)cc1,-2.03,,"0.116 µM [rising, full curve, poor fit]"
Cc1ccc(OCc2nc(-c3ccccn3)n[nH]2)cc1,13.4,,"6.51 µM [falling, single point]"
Cc1ccccc1OCC(=O)Nc1ccc(C)c(S(=O)(=O)N2CCCCCC2)c1,,,"0.517 µM [rising, single point]"
O=S(=O)(CCSc1nc2ccccc2o1)Cc1ccccc1,-5.33,,"0.651 µM [falling, partial curve, poor fit]"
CCOc1cc(C(=O)NC(C)CC)cc(OCC)c1OCC (configuration not stated),-6.97,,"14.6 µM [rising, partial curve]"
Cc1ccnc(NC(=O)CSc2nnc3c(n2)[nH]c2ccccc23)c1,-36.5,"20.6 µM [falling, single point]","18.4 µM [falling, partial curve]"
O=C(Nc1nnc(-c2ccccc2)o1)c1cccc(N2C(=O)CCC2=O)c1,8.29,,
Cc1ccc(N2C(=O)CC(c3ccsc3)C3=C2CC(C)(C)CC3=O)cc1 (configuration not stated),13.2,,
O=c1[nH]c(N2CCOCC2)nc2c1CCCC2,13.5,,"29.1 µM [falling, single point]"
Cc1ccc(N2CCN(S(=O)(=O)c3c(C)nc4scc(C)n4c3=O)CC2)c(C)c1,,,"29.1 µM [falling, single point]"
CCN(C(=O)CSc1nnnn1C)C1CCS(=O)(=O)C1 (configuration not stated),,,"6.51 µM [rising, single point]"
Cc1c(OCC(=O)N[C@H](C(=O)O)c2ccccc2)ccc2c3c(c(=O)oc12)CCCC3,27.2,,"16.4 µM [rising, partial curve, poor fit]"
COc1ccc(-n2nc(N)c(C(N)=O)n2)cc1,,,"0.164 µM [rising, full curve, poor fit]"
COc1ccc(C(=O)C[n+]2cc(-c3ccc(OC)cc3)n3c2CCCC3)cc1,23.3,,"29.1 µM [falling, single point]"
CCCCOC(=O)n1c(SCC(=O)N(C)C)nc2ccccc21,-27.5,,"6.51 µM [falling, partial curve]"
CC(C)COC(=O)C1C(=O)CC(C)(O)C(C(=O)OCC(C)C)C1c1cccnc1 (configuration not stated),-0.576,,"13 µM [falling, partial curve]"

# Three entries drawn at random from those above:
Structure (SMILES),cell number change [%],AC50 [1],AC50 [2]
CN(CCC#N)C(=O)COC(=O)c1ccc2c(=O)n3c(nc2c1)CCC3,-46.7,"16.4 µM [falling, single point]",
Cc1ccc(C(=O)Nc2ccccc2C(=O)NCc2cccnc2)cc1,13,,"29.1 µM [falling, single point]"
CCCCOC(=O)n1c(SCC(=O)N(C)C)nc2ccccc21,-27.5,,"6.51 µM [falling, partial curve]"

# (next part)

Structure (SMILES),cell number change [%],AC50 [1],AC50 [2]
C[C@@H]1C(=O)O[C@H]2[C@H](O)[C@@]34[C@H]5C[C@@H](C(C)(C)C)[C@]36[C@@H](OC(=O)[C@@H]6O)O[C@@]4(C(=O)O5)[C@@]12O,16.2,"0.411 µM [falling, single point]",
COc1ccc(-c2cc(C(=O)NCCCN3CCCC3=O)c3ccccc3n2)cc1,138,"18.4 µM [rising, partial curve]",
CC(=O)Nc1ccc(N2C(=O)C3C4CC(=O)C(c5ccccc54)C3C2=O)cc1 (configuration not stated),-28.2,,"23.1 µM [falling, partial curve]"
CC(C)c1ccc(-c2noc(C3CCCN(C(=O)c4ccc(F)cc4F)C3)n2)cc1 (configuration not stated),-50,"20.6 µM [falling, single point]","11.6 µM [falling, partial curve]"
CC1(C)C(=O)NCCN1C(=O)c1ccc2nc(Cc3ccccc3F)oc2c1,28.2,,"5.17 µM [rising, full curve, poor fit]"
CCOC(=O)N1CCN(C(=O)C(=O)Nc2sc3c(c2C#N)CC(C)(C)OC3)CC1,-24.5,,"29.1 µM [falling, single point]"
Cc1[nH]c2ccccc2c1C(=O)COC(=O)C1CC(=O)N(Cc2ccccc2)C1 (configuration not stated),44.7,"7.31 µM [rising, partial curve]","13 µM [rising, partial curve]"
CCOC(=O)NNC(=O)NCCCCCCNC(=O)NNC(=O)OCC,-38.4,"0.82 µM [falling, full curve]","0.731 µM [falling, full curve]"
CCC[C@@H]1C[C@@]1(CCC)[C@@H](NP(=O)(c1ccccc1)c1ccccc1)c1ccc(C(=O)OC)cc1,-76.7,"16.4 µM [falling, single point]","10.3 µM [rising, single point]"
COc1ccc(C(=O)Nc2ccc(-c3n[nH]c(=S)o3)cc2)cc1OC,-2.7,,
Cc1cccc(C(=O)NNC(=O)c2ccc(S(=O)(=O)N3CCOCC3)cc2)c1,28.3,,"0.103 µM [falling, full curve, poor fit]"
CC1=C(C(=O)OCC2CCCO2)C(c2ccc(Cl)cc2)NC(=O)N1 (configuration not stated),-13.8,"0.411 µM [rising, single point]",
COc1cc(OC)cc(C(=O)NNC(=O)c2cc(=O)[nH]c3ccccc23)c1,-13.9,,"0.0058 µM [falling, full curve, poor fit]"
COc1cc(/C=C/C(=O)c2ccc(C)cc2)ccc1OCC#N,-24,"0.00461 µM [falling, full curve, poor fit]","0.206 µM [falling, partial curve, poor fit]"
CC1CC(C)CN(C(=O)CSc2nc3ccsc3c(=O)n2Cc2ccccn2)C1 (configuration not stated),21.7,,"0.411 µM [rising, partial curve]"
CCCn1c(=O)[nH]c2ccccc21,-15.4,,
Cn1cc(S(=O)(=O)N2CCc3ccccc32)cc1C(=O)NC(C)(C)C,-16.1,,
CC1(C)OC(=O)C=C[C@]2(C)[C@H]3CC[C@@]4(C)[C@H](C(=O)O)OC(=O)[C@H]5O[C@]54[C@]3(C)C(=O)C[C@@H]12,-9.75,,
CC1=C(C(=O)OC(C)C)C(c2ccc(Cl)cc2)n2c(s/c(=C\c3ccc(OCC(=O)O)cc3)c2=O)=N1 (configuration not stated),22.8,,"32.6 µM [falling, single point]"
